Source: the supplement of paper PMC12067093, “Discovery and optimisation of a covalent ligand for TRIM25 and its application to targeted protein ubiquitination” (Chemical Science, 2025)
This is one part of the list.

Protein sequences, listed by entry. Tags and fused reporters are not part of them. Lines headed by an entry give the natural chain unless they say otherwise; changes in a name come on top.
UniProt Q14137: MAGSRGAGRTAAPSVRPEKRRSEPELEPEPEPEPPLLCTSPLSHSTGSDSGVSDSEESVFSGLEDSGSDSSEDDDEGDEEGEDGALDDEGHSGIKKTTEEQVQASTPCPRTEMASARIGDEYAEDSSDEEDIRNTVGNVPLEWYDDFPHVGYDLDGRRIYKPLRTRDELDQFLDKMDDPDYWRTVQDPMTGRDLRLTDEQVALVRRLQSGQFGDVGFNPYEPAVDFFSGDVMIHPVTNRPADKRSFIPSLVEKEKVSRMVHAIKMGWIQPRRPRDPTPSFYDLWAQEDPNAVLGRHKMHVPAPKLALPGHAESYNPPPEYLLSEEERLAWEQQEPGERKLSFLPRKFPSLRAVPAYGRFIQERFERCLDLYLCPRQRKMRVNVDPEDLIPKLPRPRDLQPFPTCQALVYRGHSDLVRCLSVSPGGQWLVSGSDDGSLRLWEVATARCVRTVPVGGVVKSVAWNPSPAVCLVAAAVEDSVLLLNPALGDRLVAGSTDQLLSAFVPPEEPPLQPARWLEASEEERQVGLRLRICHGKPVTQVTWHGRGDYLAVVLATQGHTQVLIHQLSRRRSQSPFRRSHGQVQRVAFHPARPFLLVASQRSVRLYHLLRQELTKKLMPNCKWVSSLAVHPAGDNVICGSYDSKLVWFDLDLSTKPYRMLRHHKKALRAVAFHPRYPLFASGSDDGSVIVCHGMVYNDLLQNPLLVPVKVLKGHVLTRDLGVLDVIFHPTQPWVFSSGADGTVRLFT
UniProt Q9NRL2: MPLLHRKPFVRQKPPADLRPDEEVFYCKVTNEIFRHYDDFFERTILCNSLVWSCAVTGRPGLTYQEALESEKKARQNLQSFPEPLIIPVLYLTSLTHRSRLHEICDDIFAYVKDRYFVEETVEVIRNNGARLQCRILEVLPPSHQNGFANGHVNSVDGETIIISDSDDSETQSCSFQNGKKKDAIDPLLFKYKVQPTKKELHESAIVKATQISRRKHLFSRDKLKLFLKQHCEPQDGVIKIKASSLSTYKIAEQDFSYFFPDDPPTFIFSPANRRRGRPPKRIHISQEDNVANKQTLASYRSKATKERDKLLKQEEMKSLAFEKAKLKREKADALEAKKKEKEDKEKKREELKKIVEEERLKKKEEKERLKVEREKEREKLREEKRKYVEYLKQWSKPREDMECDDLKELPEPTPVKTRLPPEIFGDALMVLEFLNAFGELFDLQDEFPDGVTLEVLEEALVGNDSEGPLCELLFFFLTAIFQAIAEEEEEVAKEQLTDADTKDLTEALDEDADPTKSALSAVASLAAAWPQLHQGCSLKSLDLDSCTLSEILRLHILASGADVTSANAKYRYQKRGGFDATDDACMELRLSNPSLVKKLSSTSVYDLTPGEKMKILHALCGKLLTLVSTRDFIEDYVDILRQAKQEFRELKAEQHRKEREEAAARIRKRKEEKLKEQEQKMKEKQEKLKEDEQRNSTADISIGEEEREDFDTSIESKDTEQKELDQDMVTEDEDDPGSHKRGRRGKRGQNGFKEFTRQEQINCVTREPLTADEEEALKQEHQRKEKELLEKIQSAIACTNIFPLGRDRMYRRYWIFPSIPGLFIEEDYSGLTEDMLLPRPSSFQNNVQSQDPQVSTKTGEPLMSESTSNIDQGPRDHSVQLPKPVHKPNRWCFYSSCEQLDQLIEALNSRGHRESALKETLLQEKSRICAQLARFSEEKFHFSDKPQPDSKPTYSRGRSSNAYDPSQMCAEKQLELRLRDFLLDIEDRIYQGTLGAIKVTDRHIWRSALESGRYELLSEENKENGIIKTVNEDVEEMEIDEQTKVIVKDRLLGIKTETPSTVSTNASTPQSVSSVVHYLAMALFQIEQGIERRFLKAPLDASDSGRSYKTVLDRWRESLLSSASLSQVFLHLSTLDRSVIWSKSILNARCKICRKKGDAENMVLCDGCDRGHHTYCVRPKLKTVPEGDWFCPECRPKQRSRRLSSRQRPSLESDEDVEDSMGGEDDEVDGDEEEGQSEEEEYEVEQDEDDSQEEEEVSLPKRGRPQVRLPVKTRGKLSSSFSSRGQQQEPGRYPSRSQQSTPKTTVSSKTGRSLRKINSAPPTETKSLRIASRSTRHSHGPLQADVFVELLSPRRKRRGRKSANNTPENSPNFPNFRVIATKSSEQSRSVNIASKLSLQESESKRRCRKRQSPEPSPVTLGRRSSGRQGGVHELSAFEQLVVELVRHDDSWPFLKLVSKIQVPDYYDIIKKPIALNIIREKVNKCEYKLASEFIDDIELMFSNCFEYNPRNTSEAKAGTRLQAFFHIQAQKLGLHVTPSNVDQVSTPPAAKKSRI
UniProt Q9NSY1, whole entry, looked up: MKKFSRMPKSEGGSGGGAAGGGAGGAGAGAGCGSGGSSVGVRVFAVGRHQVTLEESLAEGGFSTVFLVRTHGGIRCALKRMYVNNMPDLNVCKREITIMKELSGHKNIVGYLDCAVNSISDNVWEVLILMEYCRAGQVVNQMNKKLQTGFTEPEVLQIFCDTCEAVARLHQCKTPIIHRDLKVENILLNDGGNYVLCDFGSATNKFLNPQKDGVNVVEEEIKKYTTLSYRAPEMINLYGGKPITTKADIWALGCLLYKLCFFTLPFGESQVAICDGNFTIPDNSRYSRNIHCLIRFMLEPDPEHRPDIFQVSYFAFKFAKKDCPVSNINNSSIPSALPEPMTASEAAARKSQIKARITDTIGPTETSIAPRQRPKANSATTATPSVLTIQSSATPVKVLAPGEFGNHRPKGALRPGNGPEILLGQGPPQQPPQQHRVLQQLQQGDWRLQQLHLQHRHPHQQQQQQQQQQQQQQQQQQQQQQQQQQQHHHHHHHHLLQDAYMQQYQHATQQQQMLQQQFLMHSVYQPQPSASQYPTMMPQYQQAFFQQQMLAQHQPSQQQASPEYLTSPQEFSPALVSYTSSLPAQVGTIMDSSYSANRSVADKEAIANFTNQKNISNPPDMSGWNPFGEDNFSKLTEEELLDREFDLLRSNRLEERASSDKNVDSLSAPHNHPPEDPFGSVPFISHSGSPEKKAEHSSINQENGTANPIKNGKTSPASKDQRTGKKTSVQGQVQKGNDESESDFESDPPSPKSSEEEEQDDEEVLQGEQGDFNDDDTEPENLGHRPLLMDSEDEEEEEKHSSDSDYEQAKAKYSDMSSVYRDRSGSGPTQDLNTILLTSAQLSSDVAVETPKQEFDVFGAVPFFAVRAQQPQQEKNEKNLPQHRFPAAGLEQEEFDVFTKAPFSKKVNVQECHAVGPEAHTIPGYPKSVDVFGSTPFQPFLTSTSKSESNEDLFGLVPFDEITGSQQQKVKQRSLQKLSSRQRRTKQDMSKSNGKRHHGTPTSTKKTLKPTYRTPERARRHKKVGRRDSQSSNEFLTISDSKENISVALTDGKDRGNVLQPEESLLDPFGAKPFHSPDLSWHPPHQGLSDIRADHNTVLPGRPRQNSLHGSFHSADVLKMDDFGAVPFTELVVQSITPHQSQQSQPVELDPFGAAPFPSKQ
UniProt Q9NYF8, whole entry, looked up: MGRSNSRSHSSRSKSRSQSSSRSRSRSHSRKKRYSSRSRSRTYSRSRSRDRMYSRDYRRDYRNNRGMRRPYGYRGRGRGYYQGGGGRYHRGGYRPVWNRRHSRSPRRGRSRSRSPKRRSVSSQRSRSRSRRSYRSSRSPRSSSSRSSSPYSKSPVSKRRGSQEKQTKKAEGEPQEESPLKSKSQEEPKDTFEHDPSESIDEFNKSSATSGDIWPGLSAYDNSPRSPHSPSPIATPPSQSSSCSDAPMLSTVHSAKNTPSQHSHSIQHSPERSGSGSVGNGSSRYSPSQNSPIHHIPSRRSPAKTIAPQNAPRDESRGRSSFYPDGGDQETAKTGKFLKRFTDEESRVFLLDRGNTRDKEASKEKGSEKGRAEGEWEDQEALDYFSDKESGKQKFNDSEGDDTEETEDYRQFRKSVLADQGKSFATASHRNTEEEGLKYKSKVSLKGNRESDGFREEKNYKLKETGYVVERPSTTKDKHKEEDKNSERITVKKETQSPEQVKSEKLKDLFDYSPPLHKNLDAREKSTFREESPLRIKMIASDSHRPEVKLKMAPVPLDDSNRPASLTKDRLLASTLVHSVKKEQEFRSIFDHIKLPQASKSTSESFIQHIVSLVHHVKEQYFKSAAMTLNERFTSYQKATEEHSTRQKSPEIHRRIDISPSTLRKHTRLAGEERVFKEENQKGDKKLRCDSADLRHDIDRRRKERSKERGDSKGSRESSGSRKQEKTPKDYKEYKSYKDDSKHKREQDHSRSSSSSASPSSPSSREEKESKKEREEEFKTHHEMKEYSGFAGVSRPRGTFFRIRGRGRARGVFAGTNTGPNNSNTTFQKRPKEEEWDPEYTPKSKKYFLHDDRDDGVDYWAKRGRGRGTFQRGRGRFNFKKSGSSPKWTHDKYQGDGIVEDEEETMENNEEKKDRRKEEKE
UniProt Q96GD4, whole entry, looked up: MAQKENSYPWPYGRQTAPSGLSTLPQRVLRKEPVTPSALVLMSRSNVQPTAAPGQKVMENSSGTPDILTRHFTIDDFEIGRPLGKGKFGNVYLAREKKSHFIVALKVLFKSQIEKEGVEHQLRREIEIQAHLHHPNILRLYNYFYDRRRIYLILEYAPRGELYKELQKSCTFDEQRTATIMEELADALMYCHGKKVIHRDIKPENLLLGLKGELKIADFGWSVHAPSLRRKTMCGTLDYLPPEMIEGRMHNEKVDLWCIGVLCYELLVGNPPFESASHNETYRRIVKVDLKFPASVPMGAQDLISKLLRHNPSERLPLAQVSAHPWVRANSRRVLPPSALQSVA
UniProt Q14CW9: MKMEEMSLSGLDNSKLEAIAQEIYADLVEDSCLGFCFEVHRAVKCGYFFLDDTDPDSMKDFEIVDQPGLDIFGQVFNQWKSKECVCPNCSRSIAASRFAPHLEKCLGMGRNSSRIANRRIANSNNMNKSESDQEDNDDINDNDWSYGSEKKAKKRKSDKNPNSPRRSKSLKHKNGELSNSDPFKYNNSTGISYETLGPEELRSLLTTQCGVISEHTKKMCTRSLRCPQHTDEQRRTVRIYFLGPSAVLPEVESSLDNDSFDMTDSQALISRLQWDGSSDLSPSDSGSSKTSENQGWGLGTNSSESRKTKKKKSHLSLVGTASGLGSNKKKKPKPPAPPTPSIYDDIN
UniProt Q8NBF6: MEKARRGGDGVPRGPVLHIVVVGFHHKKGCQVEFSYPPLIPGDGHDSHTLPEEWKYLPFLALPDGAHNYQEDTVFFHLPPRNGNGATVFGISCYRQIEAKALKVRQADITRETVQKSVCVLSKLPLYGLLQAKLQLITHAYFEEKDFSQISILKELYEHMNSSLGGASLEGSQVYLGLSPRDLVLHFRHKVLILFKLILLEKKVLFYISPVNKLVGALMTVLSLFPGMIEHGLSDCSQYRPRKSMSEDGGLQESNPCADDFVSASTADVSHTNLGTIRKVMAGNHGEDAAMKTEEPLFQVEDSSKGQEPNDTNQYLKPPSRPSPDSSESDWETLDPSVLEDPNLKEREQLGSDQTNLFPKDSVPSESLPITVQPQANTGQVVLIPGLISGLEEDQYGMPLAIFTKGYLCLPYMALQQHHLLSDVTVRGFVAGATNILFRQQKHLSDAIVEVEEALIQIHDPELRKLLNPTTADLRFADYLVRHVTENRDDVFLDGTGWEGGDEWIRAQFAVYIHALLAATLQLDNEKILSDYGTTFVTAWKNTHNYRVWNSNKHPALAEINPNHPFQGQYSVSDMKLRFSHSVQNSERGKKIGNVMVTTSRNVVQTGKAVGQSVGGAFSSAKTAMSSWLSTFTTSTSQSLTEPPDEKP

What follows are targets tested with Cc1cc(ccc1-c1ccccc1)C(=O)N1CCCN(CC1)C(=O)CCl [compound 10] (assay: probe-labelled cysteine peptide fold change vs DMSO (competition) (log2 fold change); higher = less target engagement (more negative = stronger competition)). Conditions: 50 µM; THP-1; incubation time: 4 h.
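Also: competitive profiling in live THP-1 cells: cysteine peptides tagged with an iodoacetamide desthiobiotin (IA-DTB) probe, intensity after compound treatment relative to DMSO-treated cells.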

Row | Target | probe-labelled cysteine peptide fold change
1 | BOP1_Q14137_620_LMPNCK (UniProt Q14137) | -0.106
2 | BAZ1A_Q9NRL2_105_LHEICDDIFAYVK (UniProt Q9NRL2) | 0.118
3 | BMP2K_Q9NSY1_292_NIHCLIR (UniProt Q9NSY1) | 0.143
4 | BAZ1B_Q9UIG0_1006_ELDELLNCLHPQGIR (UniProt Q9UIG0) | 0.178
5 | BAHCC1_Q9P281_683_GPGQSERPDCAR (UniProt Q9P281) | 0.00773
6 | BIRC6_Q9NR09_390_ISCFGSGSCPHFLAAATK (UniProt Q9NR09) | -0.0238
7 | BAZ1B_Q9UIG0_497_SALSCVISK (UniProt Q9UIG0) | -0.393
8 | BCLAF1_Q9NYF8_688_LRCDSADLR (UniProt Q9NYF8) | -0.296
9 | BAZ1B_Q9UIG0_1228+1231_AFHLFCLRPALYEVPDGEWQCPACQPATAR (UniProt Q9UIG0) | -0.43
10 | AURKB_Q96GD4_191_TATIMEELADALMYCHGK (UniProt Q96GD4) | 0.142
11 | BAZ1B_Q9UIG0_1213_AFHLFCLRPALYEVPDGEWQCPACQPATAR (UniProt Q9UIG0) | -0.155
12 | BOD1L1_Q8NFC6_1071_RLCENR (UniProt Q8NFC6) | -0.173
13 | BAZ1B_Q9UIG0_1205_LILCDECNK (UniProt Q9UIG0) | -0.157
14 | ATXN7L3_Q14CW9_226_CPQHTDEQRR (UniProt Q14CW9) | -0.132
15 | AVL9_Q8NBF6_409_GYLCLPYMALQQHHLLSDVTVR (UniProt Q8NBF6) | 0.116

Rewritten with tabs: entries from further up.
Row	Target	probe-labelled cysteine peptide fold change
1	BOP1_Q14137_620_LMPNCK (UniProt Q14137)	-0.106
2	BAZ1A_Q9NRL2_105_LHEICDDIFAYVK (UniProt Q9NRL2)	0.118
